Measurements from “University of Dundee, Small-Polar-MMV Screening Library” (2021), ChEMBL document CHEMBL3988442.

The chains behind the UniProt entries cited, without tags or fusion partners. Residues count along the entry.
UniProt P9WNZ1, whole entry: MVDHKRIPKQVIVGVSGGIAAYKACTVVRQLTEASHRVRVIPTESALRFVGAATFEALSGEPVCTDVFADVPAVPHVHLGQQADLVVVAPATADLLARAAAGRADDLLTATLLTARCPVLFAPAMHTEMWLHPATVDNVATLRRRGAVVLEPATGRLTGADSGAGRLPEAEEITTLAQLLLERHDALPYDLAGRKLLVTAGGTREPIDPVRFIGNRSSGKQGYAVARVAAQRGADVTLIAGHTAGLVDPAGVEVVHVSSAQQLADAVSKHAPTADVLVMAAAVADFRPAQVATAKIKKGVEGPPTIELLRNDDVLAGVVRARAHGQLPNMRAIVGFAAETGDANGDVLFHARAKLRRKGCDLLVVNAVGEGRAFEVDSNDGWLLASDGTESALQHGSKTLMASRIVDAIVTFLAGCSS
UniProt I6X8D2, whole entry: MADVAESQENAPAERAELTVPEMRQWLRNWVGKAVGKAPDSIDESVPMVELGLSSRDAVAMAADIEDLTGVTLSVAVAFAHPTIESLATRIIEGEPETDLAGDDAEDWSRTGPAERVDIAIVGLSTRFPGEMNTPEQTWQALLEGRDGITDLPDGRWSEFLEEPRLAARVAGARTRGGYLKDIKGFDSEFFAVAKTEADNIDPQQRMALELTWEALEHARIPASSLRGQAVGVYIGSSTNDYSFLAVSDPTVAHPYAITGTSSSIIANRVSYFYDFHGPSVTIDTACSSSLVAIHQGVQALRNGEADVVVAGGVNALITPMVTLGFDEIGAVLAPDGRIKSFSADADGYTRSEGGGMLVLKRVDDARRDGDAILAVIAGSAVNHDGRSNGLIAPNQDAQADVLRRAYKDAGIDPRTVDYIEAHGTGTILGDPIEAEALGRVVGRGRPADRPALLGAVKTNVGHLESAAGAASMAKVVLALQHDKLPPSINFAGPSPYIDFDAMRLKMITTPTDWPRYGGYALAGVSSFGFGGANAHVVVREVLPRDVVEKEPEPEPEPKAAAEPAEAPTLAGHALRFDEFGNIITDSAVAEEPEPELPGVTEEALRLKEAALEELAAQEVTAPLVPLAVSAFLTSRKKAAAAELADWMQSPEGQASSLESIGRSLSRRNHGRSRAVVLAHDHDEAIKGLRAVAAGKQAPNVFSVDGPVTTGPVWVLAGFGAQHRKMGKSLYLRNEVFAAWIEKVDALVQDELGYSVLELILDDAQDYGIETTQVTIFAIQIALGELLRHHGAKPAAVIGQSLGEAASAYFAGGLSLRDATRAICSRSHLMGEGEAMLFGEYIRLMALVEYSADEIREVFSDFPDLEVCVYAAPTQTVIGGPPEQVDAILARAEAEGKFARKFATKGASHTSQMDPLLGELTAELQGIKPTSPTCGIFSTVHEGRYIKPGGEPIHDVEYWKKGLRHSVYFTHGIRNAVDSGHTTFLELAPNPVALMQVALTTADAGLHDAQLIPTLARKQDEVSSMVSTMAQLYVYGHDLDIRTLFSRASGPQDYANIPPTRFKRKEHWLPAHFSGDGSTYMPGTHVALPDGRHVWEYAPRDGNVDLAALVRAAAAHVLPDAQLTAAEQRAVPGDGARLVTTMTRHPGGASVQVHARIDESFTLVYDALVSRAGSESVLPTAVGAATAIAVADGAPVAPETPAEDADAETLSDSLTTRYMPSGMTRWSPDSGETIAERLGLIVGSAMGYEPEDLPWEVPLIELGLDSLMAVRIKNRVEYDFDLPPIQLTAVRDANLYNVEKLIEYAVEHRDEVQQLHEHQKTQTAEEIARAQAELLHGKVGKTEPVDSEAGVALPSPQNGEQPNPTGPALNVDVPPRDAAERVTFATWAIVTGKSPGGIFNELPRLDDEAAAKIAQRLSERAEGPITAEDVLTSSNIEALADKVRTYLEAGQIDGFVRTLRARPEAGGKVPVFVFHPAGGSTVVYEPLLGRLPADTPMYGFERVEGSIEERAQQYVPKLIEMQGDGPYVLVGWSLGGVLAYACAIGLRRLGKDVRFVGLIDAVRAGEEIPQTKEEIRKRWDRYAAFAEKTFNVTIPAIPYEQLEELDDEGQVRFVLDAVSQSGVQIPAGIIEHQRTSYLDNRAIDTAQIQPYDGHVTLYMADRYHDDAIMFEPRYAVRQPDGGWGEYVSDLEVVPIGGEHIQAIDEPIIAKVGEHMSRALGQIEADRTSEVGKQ
UniProt P9WFT3, whole entry: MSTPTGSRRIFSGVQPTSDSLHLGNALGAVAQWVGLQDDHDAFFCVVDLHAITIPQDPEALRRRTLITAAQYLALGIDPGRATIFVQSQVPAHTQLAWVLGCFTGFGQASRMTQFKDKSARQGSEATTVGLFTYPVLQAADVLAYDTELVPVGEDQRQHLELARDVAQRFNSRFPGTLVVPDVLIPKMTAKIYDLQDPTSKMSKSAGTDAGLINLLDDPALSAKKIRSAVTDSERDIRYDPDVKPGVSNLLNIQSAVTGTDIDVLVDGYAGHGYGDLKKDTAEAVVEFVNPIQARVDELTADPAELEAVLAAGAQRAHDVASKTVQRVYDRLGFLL
UniProt A4I591, 1-473: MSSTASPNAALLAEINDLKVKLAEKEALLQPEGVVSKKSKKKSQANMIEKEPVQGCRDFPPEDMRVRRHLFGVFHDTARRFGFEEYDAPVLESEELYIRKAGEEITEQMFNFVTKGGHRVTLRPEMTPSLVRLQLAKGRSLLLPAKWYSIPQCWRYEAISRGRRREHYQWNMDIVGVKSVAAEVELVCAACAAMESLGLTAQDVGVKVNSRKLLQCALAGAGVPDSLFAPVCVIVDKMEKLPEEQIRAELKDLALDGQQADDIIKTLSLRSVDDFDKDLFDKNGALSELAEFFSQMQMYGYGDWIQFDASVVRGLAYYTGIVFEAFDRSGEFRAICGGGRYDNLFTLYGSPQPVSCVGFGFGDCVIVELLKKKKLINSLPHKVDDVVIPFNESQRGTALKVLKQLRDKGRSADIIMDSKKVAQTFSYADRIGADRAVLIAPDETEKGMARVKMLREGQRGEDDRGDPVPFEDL

The filed quantity is “Percent Effect” (%).
The controls that fix the scale are not given in the record; negative values are as filed.
This is an unselected part of the compounds tested.
A dash means the value is not listed here; it may have been measured.

CoaBC: 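Coenzyme A biosynthesis protein CoaBC, Mycobacterium tuberculosis (UniProt P9WNZ1). Enzyme assay of CoaBC with a phosphate dye (Biomol Green) read at 650 nm. Compounds at 30 µM. Higher reads as stronger inhibition, judged from the few compounds that gave an IC50. Most strong results did not repeat in a second test. Size under these conditions: about 67,000 compounds, about 40 of them at 50% or above in at least one test.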
Pks13 thioesterase: 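Enzyme assay of the thioesterase domain of polyketide synthase 13; the read-out is not stated. Target: Polyketide synthase Pks13, Mycobacterium tuberculosis (UniProt I6X8D2). Concentration: 30 µM. Higher reads as stronger inhibition (inferred from which compounds were picked for retests). Size under these conditions: about 67,000 compounds, about 300 of them at 50% or above in at least one test.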
MtTrpRS: 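Enzyme assay of tryptophanyl-tRNA synthetase; the read-out is not stated. Target: Tryptophan-tRNA ligase, Mycobacterium tuberculosis (UniProt P9WFT3). Tested at 10 µM. Direction is not recorded; retested compounds ran higher, which suggests that high means inhibition. Size under these conditions: about 65,000 compounds, about 64 of them at 50% or above in at least one test.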
LiHisRS: 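Enzyme assay of histidyl-tRNA synthetase; the read-out is not stated. Target: Histidine-tRNA ligase, Leishmania infantum (UniProt A4I591). Compounds at 30 µM. The record gives no direction; compounds that gave an IC50 in retests scored well above the rest, so higher reads as stronger inhibition. The assay is labelled LdHisRS but filed under L. infantum. Size under these conditions: about 69,000 compounds, about 410 of them at 50% or above in at least one test.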

structure	CoaBC	Pks13 thioesterase	MtTrpRS	LiHisRS
O=C(COC1CCCCC1)Nc1ccn(Cc2cccnc2)n1	6.375%	3.872%	-2.579%	30.14%
CCOC(=O)c1ccc(Nc2ccc(OC)c(N3CCCC3=O)c2)nc1	7.455%	-19.43%	-1.125%	12.7%
COc1ccc(CN2C[C@@H](OCc3ccccn3)[C@H]3COC[C@H]32)cc1	-0.5141%	-20.22%	4.795%	7.519%
O=C(NCCN1CCOCC1)N(Cc1ccoc1)C1CCCCC1	0.6483%	3.792%	-2.624%	4.762%
CCCC(C#N)NC(=O)CCCOc1cccc(C(C)=O)c1 (centres undefined)	-0.3659%	-0.4897%	-1.325%	-8.791%
OCCn1cc(CN2CCN(CCOc3ccccc3)CC2)cn1	6.408%	-5.401%	-2.624%	6.154%
O=C(c1ccc(CN2CCCCC2)cc1)N1Cc2cnn(CCO)c2C1	3.904%	-2.277%	16.35%	22.45%
CC(O)(CNc1ccccn1)c1ccccc1 (centres undefined)	-4.225%	8.935%	7.542%	-2.564%
CN(Cc1ccon1)C(=O)CN1C(=O)OC(C)(C)C1=O	7.009%	-31.52%	3.483%	17.11%
Cc1ccccc1[C@@H]1CN(Cc2c(C)noc2C)C[C@H]1C(=O)O	-0.7453%	-0.02781%	-0.8258%	-1.587%
N#Cc1cn(C2CC2)c(=O)n(CC(O)c2ccc(OC(F)F)cc2)c1=O (centres undefined)	-3.723%	-10.3%	0.7862%	29.6%
Cc1cc(C(=O)NCC(=O)NC(c2ncccc2C)C(C)C)c(C)o1 (centres undefined)	5.95%	-11.73%	1.147%	7.042%
Oc1cc(CN2CCC(O)(Cn3ccnc3)CC2)nc2c(Cl)cccc12	-9.274%	-69.01%	-1.351%	2.632%
COC(=O)N1CC[C@@]2(O)CCCC[C@H]2[C@@H]1c1ccc2c(c1)OCO2	-1.928%	11.4%	0.4531%	-1.099%
O=C(c1cc[nH]n1)N1CCCC1c1cnccn1 (centres undefined)	5.068%	8.292%	1.882%	6.207%
CCN(CC)c1ccc2ccc(C(=O)O)cn12	-	1.648%	9.012%	41.03%
CCOCCCC(=O)N1CCN(C(=O)Cc2cccc(OC)c2)CC1	2.789%	-19.27%	1.051%	0%
O=C(NCC(=O)N1CCN(c2ccccc2)CC1)c1sccc1C1CC1	14.12%	-	-0.4468%	28%
CC(C)NC(=O)C1CN(C(=O)Nc2ccc(F)cc2)CC12CCOCC2 (centres undefined)	-6.694%	-7.674%	1.91%	11.93%
CCN(CC)C(=O)c1ccc(CNc2ncc(C#N)cc2Cl)cc1	7.171%	-17.71%	-8.692%	13.7%
CCN1CCC(c2nc3ccc(NC4CCC4)cn3n2)CC1	0.3713%	0.2066%	-	23.76%
Cc1ccc(CNC(=O)C2=NOC3(CCCNC3)C2)cc1 (centres undefined)	-5.462%	-12.98%	-1.395%	9.091%
CCc1noc(C(C)N(C)Cc2ccc(OC)c(OC)c2)n1 (centres undefined)	5.941%	11.11%	-2.282%	14%
CC(NC(N)=O)C(=O)N(C)Cc1cccc(C(F)(F)F)c1 (centres undefined)	-0.6452%	28.93%	5.759%	-3.947%
O=S(=O)(C1CC1)N1CC[C@]2(C[C@@H](OCC3CCOCC3)CO2)C1	-0.2037%	-28.8%	-10.82%	7.895%
O=C(NCc1ccc(F)cc1)N1CCC(C2OCCO2)CC1	3.644%	-23.39%	-2.436%	20%
CCOC1CCCN(C(=O)CCOc2ccc(C)cc2OC)C1 (centres undefined)	1.869%	-25.21%	-2.825%	9.735%
CCc1nc(CCNC(=O)NC2CC(=O)N(C(C)(C)C)C2)cs1 (centres undefined)	-6.291%	-20.18%	-5.061%	21.88%
Cc1cnn(CCNCC(=O)NC2(C#N)CCCC2)c1	1.449%	-13.83%	-6.545%	23.23%
Cn1nc(COCC2CC2)c2c1CCN(C(=O)c1ccno1)C2	4.44%	-50.46%	-6.131%	19.3%
CN(CCO)CC1COCCN1C(=O)C1CCCCC1 (centres undefined)	-2.926%	6.544%	0.297%	19.51%
CC(C)C(=O)N1CCCC(Cc2ccccn2)C1 (centres undefined)	3.196%	-	-2.263%	9.396%
C[C@]1(O)CN(Cc2ccc(C(=O)O)cc2)CC[C@@H]1Oc1cccc(F)c1	3.398%	4.544%	-	7.246%
O=C(O)c1cn(CC2CCCN(c3ccc4ccccc4n3)C2)nn1 (centres undefined)	11.18%	-1.138%	0.5747%	15.5%
CC(CNCc1ccc(Cl)c(Cl)c1)Oc1ccccn1 (centres undefined)	6.864%	-58.62%	-2.613%	7.767%
Cc1ccc(-c2nnc(CN3CCN(c4ccccn4)CC3)o2)cc1	3.641%	23.48%	-	15.84%
CCC(C)(NCC(=O)N(c1ccccc1)C(C)C)c1nc(C)cs1 (centres undefined)	7.489%	-7.752%	-2.515%	11.32%
CCc1c(C)nc(C)nc1N1C[C@@H](CN(C)C)[C@@H](CO)C1	6.17%	-7.219%	-3.476%	10.42%

For reference, 3 entries once more:

structure	CoaBC	Pks13 thioesterase	MtTrpRS	LiHisRS
O=C(NCCN1CCOCC1)N(Cc1ccoc1)C1CCCCC1	0.6483%	3.792%	-2.624%	4.762%
Cn1nc(COCC2CC2)c2c1CCN(C(=O)c1ccno1)C2	4.44%	-50.46%	-6.131%	19.3%
CCOCCCC(=O)N1CCN(C(=O)Cc2cccc(OC)c2)CC1	2.789%	-19.27%	1.051%	0%